Data: paper PMC4433220
The exact form of at least one protein or probe is not confirmed. For some assays here: A weaker result is weaker than the reference pair of the same experiment. For some assays here: At least one verdict rests on a figure or table, not on a statement of the authors.

Assays:
[1] = target: Dps (Escherichia coli) (UniProt P0ABT2); assay: AFM; conditions: recombinant protein
[2] = target: Dps (Escherichia coli) (UniProt P0ABT2); assay: DNase I footprinting; conditions: 10 mM Mg2+, footprinting: 50 mM Tris-HCl pH 8.0, 0.1 mM EDTA, 0.1 mM DTT, 10 mM MgCl2, 50 mM NaCl, 5 mg/ml BSA, 37°C 40 min, recombinant protein, probe letters rebuilt from the primers and the genome
[3] = target: Dps (Escherichia coli) (UniProt P0ABT2); assay: EMSA; conditions: EMSA: 50 mM Tris-HCl pH 7.5, 0.1 mM EDTA, 50 mM NaCl, 37°C 30 min, recombinant protein, none in EMSA, probe letters rebuilt from the primers and the genome

Sequence: GCATAACCATGCAGAATTTCTCGCTACTTTTCCTCTACACCGTCTTTATATATCGAATTAAGAAGTCGCAATGAGTATTACTTTGTAAAT / CAAGGGTAAACGAACCTTGCGCTTTCTTAAATATTCGATATATAAAGACGGTGTAGAGGAAAAGTAGCGAGAAATTCTGCATGGTTATGC / ATTTACAAAGTAATACTCATTGCGACTTCTTAATTTAAGAAAGCGCAAGGTTCGTTTACCCTTG [Y9_Y10_Y7]
- binding result ([1]; one or two DNA branches visible, folded or branched DNA): binds

Sequence: GGAAGATCTTCCTCGGAGAAACACTGACACCCATACAGCTACTGGCGCTCGGCGCTATCATCGCCGCTTCAATGGGGTCTACGCTGACAGTACGCAAAGAGAGCAAAATAAAAGAATTAGACATTAATTAAATTTACATTTCTGCATGGTTATGCATAACCATGCAGAATTTCTCGCTACTTTTCCTCTACACCGTCTTTATATATCTAGATAT (double strand) [dps F1-R1 fragment (distal P3)]
- binding result ([2]; R1 end protected at 10-fold Dps excess, label: 32P 5' end of dps_F1 in footprinting, none in EMSA): binds
- binding result ([1]; bound at DNA ends, label: 32P 5' end of dps_F1 in footprinting, none in EMSA, probe letters rebuilt from the primers and the genome): binds
- binding result ([3]; lower affinity than F2-R2 in mixed assay, label: 32P 5' end of dps_F1 in footprinting): binds more weakly

Sequence: TCCTCTAGATGTTATGTCCCAGTAATTAACGAGATTAAGTATAGCACCGGCTATGTGTTCCGCTATTCTGGCTGTTCCTATCACACTAATAGTGGTAACAAGCGTGAAAAACAAAACTAATAAAGATTCAATGAGTTAGATATATTGATAAGAACAATTCTTATTTATCTGCTCGCCAGGAATTTTCGGAATAAATATGCTTTTGCATAATTCGATATATAAAGACGGTGTAGAGGAAAAGTAGCGAGAAATTCTGCATGGTTATGCATAACCATGCAGAAATGTAAATTTAATTAATGTCTAATTCTTTTATTTTGCTCTCTTTGCGTACTGTCAGCGTAGACCCCATTGAAGCGGCGATGATAGCGCCGAGCGCCAGTAGCTGTATGGGTGTCAGTGTTTCTCCGAGGAAGATCTTCC (double strand) [dps F1-R2 fragment]
- binding result ([2]; 5-fold Dps excess, label: 32P 5' end of dps_R2): binds

Sequence: TCCTCTAGATGTTATGTCCCAGTAATTAACGAGATTAAGTATAGCACCGGCTATGTGTTCCGCTATTCTGGCTGTTCCTATCACACTAATAGTGGTAACAAGCGTGAAAAACAAAACTAATAAAGATTCAATGAGTTAGATATATTGATAAGAACAATTCTTATTTATCTGCTCGCCAGGAATTTTCGGAATAAATATGCTTTTGCATAATTCGATATATAAAGACGGTGTAGAGGAAAAGTAGCGAGAAGATCTGCAT (double strand) [dps F2-R2 fragment (Pdps)]
- binding result ([2]; 5- and 10-fold Dps excess, label: 32P 5' end of dps_R2 in footprinting, none in EMSA): binds
- binding result ([1]; bound at DNA ends, label: 32P 5' end of dps_R2 in footprinting, none in EMSA, probe letters rebuilt from the primers and the genome): binds
- binding result ([3]; higher affinity than F1-R1 in mixed assay, label: 32P 5' end of dps_R2 in footprinting): binds
